According to US20100210692A1, “METHODS OF TREATMENT USING SIRT MODULATORS AND COMPOSITIONS CONTAINING SIRT1 MODULATORS” (priority 2007, published 2010):
For at least one compound, name, drawing or mass did not settle the structure.

Columns and labels:
3T3-L1 adipocytes [1] = experiment: Western blot of adiponectin secretion and intracellular proteins in 3T3-L1 adipocytes; format: cell-based, Murine
Method: Cell Culture: Murine 3T3-L1 preadipocytes were cultured and maintained in DMEM supplemented with […]. Differentiation was induced by exposure of postconfluent cells to DMEM containing 10% […], 1 μM dexamethasone (DEX), 0.5 mM 3-isobutyl-1-methylxanthine (MIX) and […] insulin. After 48 hours, the medium was changed to DMEM containing 10% FBS every two days. Human embryonic kidney (HEK)-293T cells were cultured in DMEM with 10% FBS; The Swiss F-PPARγ cells were differentiated as recently described (Wang et al, 2006; accompanying paper).
Western Blot Analysis of Proteins: Isolation and western blot analysis of total cell proteins was performed as outlined previously (21). The antibodies employed in the analysis were as follows: Mouse polyclonal anti-adiponectin antibody (Affinity BioREagents, Golden, Colo.), polyclonal anti-SIRT1 antibody (Upstate), anti-PPARγ and anti-C/EBPα (Santa Cruz Biotechnology), anti-Ero1 polyclonal antibody (Abnova Co., Taiwan, China) and polyclonal anti-aP2 serum (Dr. David Benlohr at University of Minnesota). For analysis of secreted proteins, aliquots of the culture medium were centrifuged at low speed to remove debris and then subjected to standard SDS-PAGE as above or non-reducing SDS-PAGE as outlined by Kadowaki and collaborators (37). Prior to electrophoresis, the samples were mixed with 4× non-reducing protein sample buffer (200 mM, […], 8% SDS, 0.4% bromophenot blue, 40% glycerol) and incubated at room temperature for one hour. Care was taken to ensure that all components of the SDs PAGE system were completely free of reducing agents.

Swiss EF-PPARγ cells = experiment: Western blot of adipogenic proteins in Swiss EF-PPARγ / F-PPARγ cells; format: cell-based, mouse; settings: 5 μM troglitazone, day 5
[2] = system: Swiss 3T3 fibroblasts expressing wild type PPARγ; experiment: RT-PCR of mRNAs in Swiss 3T3 fibroblasts expressing wild type PPARγ (FIG. 5); format: cell-based, mouse
Swiss WT-PPARγ cells = experiment: RT-PCR of Group 1 and Group 2 genes in Swiss WT-PPARγ cells; format: cell-based, mouse
Method: Cells were then harvested for extraction of RNA followed by RT-PCR analysis of FGF21 and FABP4/aP2 mRNAs as described in materials and methods. (B). […] (C). Reporter assays were also performed in Swiss fibroblasts stably expressing a WT-PPARγ or a pBabe-puro empty vector (control cells) following transfection of the FGF21 promoter reporter plasmids along with the renilla control vector in the presence or absence of GW1929. In both assays (B) and (C), a set of cells were also transfected with a reporter plasmid consisting of the PPRE from the aP2 gene upstream of luciferase within pGL3 (DR-1). Transcriptional activity of each of the fragments of the FGF21 gene promoter is shown as the ratio of luciferase to renilla activity (Luc/Ren) as described in materials and methods.
(§1) Cells were refed every 2 days.

3T3-L1 adipocytes [3] = experiment: RT-PCR of Group 1 and Group 2 genes in differentiating 3T3-L1 cells (FIG. 17); format: cell-based, murine
Text: Untreated and treated cells were harvested for analysis of select mRNAs using RT-PCR as described in materials and methods. […] (C). Model proposing interplay between PPARγ and SIRT1 in controlling adipocyte function, PPARγ functions to regulate adipocyte formation and function. Endogenous ligands activate PPARγ requiring participation of both helix 7 and 12 to orchestrate adipogenesis. In mature adipocytes, SIRT1 mediates hormonal and nutrient control of select PPARγ target genes that are involved in controlling metabolism by suppressing the action of endogenous ligands. The thiazolidinedione (TZD) family of synthetic PPARγ ligands can overcome the suppressive effects of SIRT1 acting through helix 7 as well as helix 12 to induce the metabolic genes.
as §1

[4] = troglitazone 5 μM or T0070907 10 μM, 3 days
[5] = differentiation in presence of troglitazone, 7-day culture period

Cc1c(C)c2c(c(C)c1O)CCC(C)(COc1ccc(CC3SC(=O)NC3=O)cc1)O2 (centres unmarked) [troglitazone]
production of adipsin (3T3-L1 adipocytes [1]; control and SIRT1 knock down 3T3-L1 cells, troglitazone 5 μM (FIG. 6D)): slight decrease in production of adipsin | amount of secreted HMW adiponectin (3T3-L1 adipocytes [1]; [4]): significantly increases the amount of secreted HMW adiponectin | secretion of adipsin (3T3-L1 adipocytes [1]; [4]): attenuates secretion of adipsin | expression of SIRT1 (3T3-L1 adipocytes [1]; troglitazone 5 μM, 3 days): induces expression of SIRT1 | expression of Ero1-Lα protein (FIG. 19) (Swiss EF-PPARγ cells; F-PPARγ or EF-PPARγ cells): completely unresponsive | conversion into adipocytic cells and expression of C/EBPα, perilipin and aP2 (FIG. 11) (Swiss EF-PPARγ cells; Swiss-EF-PPARγ cells): induces their conversion into adipocytic cells | Ero1-Lα mRNA expression [2]: enhanced several fold | adiponectin mRNA expression [2]: no apparent increase in adiponectin expression | expression of Group 2 genes (FIG. 12A) (Swiss WT-PPARγ cells; 5 μM troglitazone, 5 days): enhanced many fold | FGF21 mRNA expression (FIG. 15A) (Swiss WT-PPARγ cells; day 5 cells, troglitazone 5 μM or cycloheximide 5 μg/ml for 4, 6 or 8 hrs): rapidly induces FGF21 mRNA expression | expression of Ero1-Lα, Scd3 and FGF21 (FIG. 12B) (Swiss WT-PPARγ cells; [5]): enhances as well as maintains expression of Ero1-Lα, Scd3 and FGF21 | expression of adiponectin and C/EBPα mRNAs (FIG. 12B) (Swiss WT-PPARγ cells; [5]): minimal effect on expression of adiponectin and C/EBPα mRNAs | expression of FGF21 and OLR-1 (FIG. 14C) (Swiss WT-PPARγ cells; increasing concentrations of troglitazone, 5 days): induced in a troglitazone dose-dependent manner | expression of Group 1 genes C/EBPα, adiponectin and FABP4 (FIG. 17A) (3T3-L1 adipocytes [3]; 5 μM troglitazone for 2 days): essentially unresponsive | ELOVL3 expression (FIG. 17A) (3T3-L1 adipocytes [3]; 5 μM troglitazone for 2 days at day 2, 4, 6): induced | FGF21 and Ero1-Lα gene expression (FIG. 17A) (3T3-L1 adipocytes [3]; 5 μM troglitazone for 2 days, more mature adipocytes): enhanced several fold | doses of troglitazone inducing FGF21 and Egln1 (FIG. 17B) (3T3-L1 adipocytes [3]; control 3T3-L1 cells, day 4, 2 days exposure): I to 5
